Measurements reported in ChEMBL document CHEMBL5550090, “Synthesis and biological evaluation of 1H-pyrrolo[3,2-g]isoquinolines” (Bioorg Med Chem, 2024).

Assays:
Experiment in all cases: cells
TERT-RPE1 = settings: Homo sapiens, RPE-1, 48 h
HBL-100 = settings: Homo sapiens, HBL-100, 48 h
HCT-116 = settings: Homo sapiens, HCT-116, 48 h
SH-SY5Y = settings: Homo sapiens, 48 h
U2OS = settings: Homo sapiens, 48 h

- EC50 (HBL-100): 25.7 µM
- EC50 (HCT-116): 2.2 µM
- EC50 (SH-SY5Y): > 50 µM
- EC50 (U2OS): 0.9 µM
SMILES: CCCNc1ccc2ncc(-c3ccc4[nH]ncc4c3)n2n1
- EC50 (TERT-RPE1): 1.4 µM
